These are yes or no findings as the source states them, for the method shown. Binding calls can cover weak binding; strength is not graded here. Tags and fused reporters may be left off the sequences shown.
Target: T1, GST-AS2 (… LEAVES 2) (Arabidopsis thaliana) (UniProt O04479)
T1 sequence: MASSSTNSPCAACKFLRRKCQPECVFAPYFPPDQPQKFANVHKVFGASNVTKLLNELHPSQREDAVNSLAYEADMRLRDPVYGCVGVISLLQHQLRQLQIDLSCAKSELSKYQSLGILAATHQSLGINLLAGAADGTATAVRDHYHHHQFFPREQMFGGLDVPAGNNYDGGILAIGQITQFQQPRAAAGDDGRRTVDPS
Assay: pull-down; 2 ug of GST/MBP/His/His-SUMO fusion proteins; binding buffer 50 mM Tris-HCl pH 7.5, 100 mM NaCl, 0.25% Triton X-100, 35 mM beta-mercaptoethanol, 2 h at 4 C, then glutathione sepharose 4B overnight; 6 washes; Western blot with anti-His, anti-GST or anti-MBP; both purified

## DCP1, recombinant
  binding: binds weakly
